Laboratory results taken from article doi:10.1101/2025.07.01.662580.
Results are given in words; binding and its absence hold for the method and conditions named. Some binding calls cover weakened binding; strength is not graded here. Sequences can lack the tags named with a protein.

T1: Phosphoglucomutase-1 (PGM1), recombinant human (human) (UniProt P36871)
T1 sequence (chain, RED-tris-NTA dye bound to the His6 tag): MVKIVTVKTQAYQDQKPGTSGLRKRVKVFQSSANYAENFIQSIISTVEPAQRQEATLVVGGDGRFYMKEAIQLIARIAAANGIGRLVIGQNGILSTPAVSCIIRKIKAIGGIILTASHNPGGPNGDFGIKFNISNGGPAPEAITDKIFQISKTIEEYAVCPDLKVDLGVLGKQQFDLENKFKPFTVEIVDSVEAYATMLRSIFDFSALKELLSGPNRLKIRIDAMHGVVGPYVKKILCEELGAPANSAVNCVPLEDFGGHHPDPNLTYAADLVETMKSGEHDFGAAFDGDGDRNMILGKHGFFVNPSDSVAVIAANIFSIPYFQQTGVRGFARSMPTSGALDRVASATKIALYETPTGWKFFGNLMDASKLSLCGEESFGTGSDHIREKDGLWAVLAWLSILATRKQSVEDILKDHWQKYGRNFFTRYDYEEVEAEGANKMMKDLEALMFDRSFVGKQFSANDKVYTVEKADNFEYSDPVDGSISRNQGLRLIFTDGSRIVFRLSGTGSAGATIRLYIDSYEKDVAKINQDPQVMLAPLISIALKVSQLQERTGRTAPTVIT


Molecular target: T1, Phosphoglucomutase-1 (PGM1), recombinant human (human)
Experiment: MST

Binder	binding
SSQPRQYNNPIGLYSAETLREMAQMY [peptide representing the conserved Zasp motif (ZM) of ZASP/Cypher (LDB3), 26-mer, wild type]	binds
SSQPRQYNNPIGLYSAEILREMAQMY [Zasp motif (ZM) peptide of ZASP/Cypher (LDB3) with the T106I mutation, 26-mer]	binds
